Key:
[1] = Sensitivity by step tablet method (Kodak step tablet No.2); details: sand-blasted aluminum plate, 1-kW metal halide lamp, 20 cm, 30 seconds, developed with water
[2] = Developability with water and occurrence of swelling of coated plate; details: with water

Row | SMILES | Sensitivity (Gradation scale No. of Kodak step Table No. 2) ([1]; Table 4) | Swelling ([2]; Table 4) | Sensitivity (Gradation scale No. of Kodak step Table No. 2) ([1]; Table 2) | Developability ([2]; Table 2) | Swelling ([2]; Table 2) | Developability ([2]; Table 4)
1 | CCCCOS(=O)(=O)c1cc(N=[N+]=[N-])ccc1C=Cc1ccc(N=[N+]=[N-])cc1S(=O)(=O)OCCCC [Ester C, reference compound] | 10 | None | – | – | – | –
2 | [N-]=[N+]=Nc1ccc(C=Cc2ccc(N=[N+]=[N-])cc2S(=O)(=O)NCCOCCO)c(S(=O)(=O)NCCOCCO)c1 [Amide No. 4] | – | – | 11 | Good | None | –
3 | [N-]=[N+]=Nc1ccc(C=Cc2ccc(N=[N+]=[N-])cc2S(=O)(=O)NCCCO)c(S(=O)(=O)NCCCO)c1 [Amide No. 1] | – | – | 13 | Good | None | –
4 | CCCCCCCNS(=O)(=O)c1cc(N=[N+]=[N-])ccc1C=Cc1ccc(N=[N+]=[N-])cc1S(=O)(=O)NCCCCCCC [Amide No. 11] | 11 | None | – | – | – | Good
5 | [N-]=[N+]=Nc1ccc(C=Cc2ccc(N=[N+]=[N-])cc2S(=O)(=O)[O-])c(S(=O)(=O)[O-])c1.[Na+].[Na+] [Sodium salt, sodium 4,4'-diazidostilbene-2,2'-disulfonate, reference compound] | 9 | – | 9 | Good | – | Good
6 | COCCOCCNS(=O)(=O)c1cc(N=[N+]=[N-])ccc1C=Cc1ccc(N=[N+]=[N-])cc1S(=O)(=O)NCCOCCOC [Amide No. 7] | – | – | 12 | Good | None | –
7 | CC(CCO)NS(=O)(=O)c1cc(N=[N+]=[N-])ccc1C=Cc1ccc(N=[N+]=[N-])cc1S(=O)(=O)NC(C)CCO (centres unmarked) [Amide No. 3] | – | – | 12 | Good | None | –
8 | CCCCCCCCNS(=O)(=O)c1cc(N=[N+]=[N-])ccc1C=Cc1ccc(N=[N+]=[N-])cc1S(=O)(=O)NCCCCCCCC [Amide No. 9] | 11 | None | – | – | – | Good
9 | CCOCCNS(=O)(=O)c1cc(N=[N+]=[N-])ccc1C=Cc1ccc(N=[N+]=[N-])cc1S(=O)(=O)NCCOCC [Amide No. 8] | – | – | 13 | Good | None | –
10 | CCCCN(C)S(=O)(=O)c1cc(N=[N+]=[N-])ccc1C=Cc1ccc(N=[N+]=[N-])cc1S(=O)(=O)N(C)CCCC [Amide No. 14] | 11 | None | – | – | – | Good
11 | [N-]=[N+]=Nc1ccc(C=Cc2ccc(N=[N+]=[N-])cc2S(=O)(=O)NCCO)c(S(=O)(=O)NCCO)c1 [Amide No. 2] | – | – | 11 | Good | None | –
12 | CCCCCN(CCCCC)S(=O)(=O)c1cc(N=[N+]=[N-])ccc1C=Cc1ccc(N=[N+]=[N-])cc1S(=O)(=O)N(CCCCC)CCCCC [Amide No. 15] | 11 | None | – | – | – | Good
13 | CCOCCOS(=O)(=O)c1cc(N=[N+]=[N-])ccc1C=Cc1ccc(N=[N+]=[N-])cc1S(=O)(=O)OCCOCC [Ester B, reference compound] | – | – | 10 | – | None | –
14 | CC(C)CNS(=O)(=O)c1cc(N=[N+]=[N-])ccc1C=Cc1ccc(N=[N+]=[N-])cc1S(=O)(=O)NCC(C)C [Amide No. 10] | 12 | None | – | – | – | Good
